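Whole-cell assay for inhibitors of Mycobacterium tuberculosis growth, labelled Cornell in the record; the read-out is not stated. The concentration is filed as 10 mM, unlikely as a test dose, so the dose is not known. Higher means stronger inhibition (inferred from two other growth screens of the library). Size under these conditions: about 53,000 compounds, about 900 of them at 50% or above in at least one test.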

Each number is a percent effect as filed.
How 0% and 100% were set is not recorded. Most values in the screen are low, and negative values occur.
Compounds were drawn at random from those tested, without regard to their results.

| Compound | percent effect |
|---|---|
| `Fc1ccc2c(c1)CCC2NCc1ccc(N2CCOCC2)cc1` (stereo unspecified) | -18.91 |
| `O=S(=O)(NCC(c1ccsc1)N1CCCCCC1)c1cccs1` (stereo unspecified) | -4.655 |
| `COc1c(CNCCNC(=O)c2ccc(C)cc2)c(C)nn1C` | -0.5584 |
| `OC1(CNCCCN2CCc3ccccc32)CCNC1` (stereo unspecified) | -7.112 |
| `COCCC1(C(=O)O)CCCN(CCOCc2ccccc2)C1` (stereo unspecified) | -12.73 |
| `CNC(=O)CCc1cc(C)nc(C2CCN(CC(=O)N(C)C)CC2)c1` | 10.29 |
| `Cc1cc(C)c(S(N)(=O)=O)cc1C(=O)NCCN1CCCCC1` | 7.843 |
| `O=C(O)CC(O)(CC(=O)O)C(=O)O.c1cnc2[nH]nc(C3CCN(Cc4ccsc4)CC3)c2c1` | 35.2 |
| `CN(C)CC(=O)N1CCC2(CCc3ccc(-c4ccncc4)cc32)CC1.O=C(O)C(F)(F)F.O=C(O)C(F)(F)F` | 28.64 |
| `[H][C@@]12CS(=O)(=O)C[C@]1([H])N(C(=O)CN1CCCC1)CCN2Cc1[nH]cnc1C` | 15.58 |
| `Cc1cc(C)cc(C(=O)NCCCNc2ncccn2)c1` | 21.98 |
| `[H][C@@]12C[C@@H](c3noc(C)n3)O[C@]1([H])CN(C(=O)c1cc(C)nn1CC)C2` | 0.3808 |
| `Cc1cc(=O)c2ccccc2n1CC1CCNC1` (stereo unspecified) | 13.17 |
| `Cc1cc(C)c(CNC(=O)N(C)Cc2cccc(F)c2)c(=O)[nH]1` | -8.419 |
| `O=C(CN1CCOCC1)Nc1ccc(C(F)(F)F)cc1Cl` | -3.484 |
| `CC(C)[C@@H]1CN(C(=O)NCCc2ccccc2)C[C@H]1NS(=O)(=O)N(C)C` | 16.5 |
| `CCc1ncnc2c1CCN(Cc1cccs1)CC2.O=C(O)C(F)(F)F` | 10.91 |
| `CNC(=O)c1sc2ccccc2c1C1CCN(c2nc(C)cc(C)n2)C1` (stereo unspecified) | 14.17 |
| `N#Cc1cccc(C(=O)N2C[C@H](CO)C[C@H](CN3CCCC3)C2)c1` | 8.922 |
| `Cn1ccc2cc(C(=O)NC3CCS(=O)(=O)C3)ccc21` (stereo unspecified) | 9.029 |
| `CNC(=O)NC(=O)CNc1cc(C(=O)OC)cc(C(F)(F)F)c1` | -0.9714 |
| `CCSc1cncc(NCc2ccc(N3CCNC(=O)C3)cc2)n1` | 7.056 |
| `CC(c1ccon1)N(C)C(=O)C1CCN(C(=O)C2CC2)CC1` (stereo unspecified) | -32.18 |
| `Cc1cncnc1C1CCN(C(=O)CN(C)C)CC1` | -21.19 |
| `CCC(CC)CN1CCC(n2cc(C3CCCC3)nn2)CC1` | -2.351 |
| `CCN(c1ccc(C(=O)NCCCN2CCOCC2)cc1)S(=O)(=O)CC` | -15.72 |
| `CCN1CCC2(COCc3c(C)nc(N4CCOCC4)nc32)C1` (stereo unspecified) | -29.89 |
| `CC1CCC(NC(=O)CNC2(c3cccc(Br)c3)CCOCC2)CC1` (stereo unspecified) | 26.64 |
| `CSCCC(=O)N1C[C@H](Nc2ccnc(C)n2)[C@@H](C(C)C)C1` | 0.6688 |
| `Cc1cc(NC(=O)NCC(C)N2CCOCC2)n(C)n1` (stereo unspecified) | 23.71 |
| `COCCNC(=O)Cn1ccc2cccc(OC)c21` | -16.86 |
| `Cc1occc1C(=O)N1CCC2(CC1)CC(c1cccnc1)C(=O)N2C` (stereo unspecified) | 24.74 |
| `CC(C)(C)c1ncc(C(=O)N2CCN(C(=O)c3ccc[nH]3)CC2)c(O)n1` | -6.614 |
| `O=C(O)C(F)(F)F.c1csc(CN2CCc3onc(Cn4cccc4)c3C2)c1` | -8.915 |
| `CCC(CO)N(Cc1ccc(F)cc1)Cc1c(C)nn(C)c1Cl` (stereo unspecified) | 8.359 |
| `[H][C@@]12CCN(c3ncccn3)[C@]1([H])CC[C@@H](C(=O)N1CCCO1)O2` | -33.11 |
| `N#Cc1nccnc1NCCC1CCN(CC(F)(F)F)CC1` | 22.02 |
| `CC(C)c1cccc(N2CCCC3(CCC(=O)N(C4CC4)C3)C2)n1` (stereo unspecified) | 22.53 |
| `[H][C@@]12CCN(CC3CCOCC3)[C@]1([H])CC[C@H](c1nnc(C)o1)O2` | -24.39 |
| `CCc1ccc(C(=O)N2CCCC2c2c(C)nn(C)c2OC)o1` (stereo unspecified) | -3.984 |
| `Cc1ccc(NC(=O)c2cnc(N3CCN(C)CC3)nc2C)cc1C` | 33.5 |
| `COc1cc(C)c(S(=O)(=O)CC(=O)N(C)C(C)C)cc1OC` | 1.501 |
| `CCC(C(=O)NCC1CCN(c2cnn(C)c(=O)c2)CC1)n1cccn1` (stereo unspecified) | 0 |
| `CC(C)c1nc(CS(=O)(=O)Cc2noc(C3CC3)n2)cs1` | 2.286 |
| `COCCNc1ccccc1CNC(=O)C1CCCOC1` (stereo unspecified) | -42.89 |
| `CC(=O)Nc1nc(C(=O)N2CCCC(n3nc(C)nc3C)C2)cs1` (stereo unspecified) | -18.89 |
| `NC(=O)CN1CCC(c2noc3cc(F)ccc23)CC1` | -49.47 |
| `COCc1ccccc1C(=O)N(C)Cc1ncc(C)c(OC)c1C` | -10.39 |
| `CCc1cnc(NCC(c2cccnc2)N2CCOCC2)nc1` (stereo unspecified) | -6.084 |
| `CCS(=O)(=O)CCN1CCN(C2CCC(C(C)C)CC2)CC1` (stereo unspecified) | 2.951 |
| `N#Cc1cccnc1N1CCC2(CCCN(C3CCOCC3)C2=O)C1` (stereo unspecified) | -10.32 |
| `Cc1noc(C)c1CNCc1nn(-c2ccccc2)c2c1CCC2` | -25.17 |
| `CCc1c(C)nc(N)nc1N1CCCC(c2nc(CCOC)no2)C1` (stereo unspecified) | -23.72 |
| `CC(=O)c1cccc(OC(C)C(=O)Nc2cnn(CCN(C)C)c2)c1` (stereo unspecified) | -7.241 |

From ChEMBL document CHEMBL3988442, “University of Dundee, Small-Polar-MMV Screening Library” (2021).